The values that follow come from publication doi:10.1101/2020.12.30.424702.

The chains behind the UniProt entries cited, without tags or fusion partners. Where a name states a change or a piece, a line headed by the entry shows the natural chain unless it says otherwise. Residues count along the entry.
UniProt O43707: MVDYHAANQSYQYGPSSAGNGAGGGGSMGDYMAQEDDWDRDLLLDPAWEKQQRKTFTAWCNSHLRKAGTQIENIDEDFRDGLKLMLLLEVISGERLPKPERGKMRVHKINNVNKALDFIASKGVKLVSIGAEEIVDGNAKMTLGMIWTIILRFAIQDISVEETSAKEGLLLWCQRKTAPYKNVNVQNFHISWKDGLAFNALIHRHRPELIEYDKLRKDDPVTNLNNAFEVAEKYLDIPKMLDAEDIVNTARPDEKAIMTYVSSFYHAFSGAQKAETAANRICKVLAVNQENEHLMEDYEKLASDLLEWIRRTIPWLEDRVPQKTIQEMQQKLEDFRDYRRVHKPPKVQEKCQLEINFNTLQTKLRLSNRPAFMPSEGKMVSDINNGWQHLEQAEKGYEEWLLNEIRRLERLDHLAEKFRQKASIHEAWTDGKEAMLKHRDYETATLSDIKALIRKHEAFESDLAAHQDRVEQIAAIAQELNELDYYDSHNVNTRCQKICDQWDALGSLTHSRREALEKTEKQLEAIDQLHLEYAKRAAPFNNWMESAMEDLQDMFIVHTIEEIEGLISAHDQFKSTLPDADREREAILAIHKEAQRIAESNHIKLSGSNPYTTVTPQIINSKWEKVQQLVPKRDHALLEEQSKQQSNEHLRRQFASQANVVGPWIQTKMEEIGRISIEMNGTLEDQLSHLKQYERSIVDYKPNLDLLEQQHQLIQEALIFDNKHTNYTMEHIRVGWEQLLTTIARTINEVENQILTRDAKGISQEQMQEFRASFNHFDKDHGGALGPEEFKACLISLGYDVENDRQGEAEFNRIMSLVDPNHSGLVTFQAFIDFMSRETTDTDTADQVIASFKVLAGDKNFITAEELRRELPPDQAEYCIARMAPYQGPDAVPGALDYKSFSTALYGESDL
maltose-binding protein fusion of alpha-actinin-4 spectrin repeats/EF hands (271-911aa): residues 271-911 of O43707

This test concerns the target maltose-binding protein fusion of alpha-actinin-4 spectrin repeats/EF hands (271-911aa) (human) (UniProt O43707). Description: co-purification of two co-expressed constructs.

Results are given in words; binding and its absence hold for the method and conditions named. Some entries that bind do so weakly or less than the wild type.

Regarding “recombinant 6-His tagged alpha-actinin-4 full length (1-911aa) (from UniProt O43707-1 1-911)”, the binding entry is “binds”.
